{
  "source": "paper PMC11359531",
  "about": "“Establishment of Dissolution Test Method for Multi-Components in Traditional Chinese Medicine Preparations Based on In Vitro–In Vivo Correlation” (Pharmaceuticals, 2024)",
  "note": "No dose or concentration is given here for some results.",
  "data": [
    {"experiment": "BCS classification from solubility and permeability", "conditions": "based on permeability and solubility results", "values": [
      {"molecule": "COc1c2ccoc2c(OC[C@@H](O)C(C)(C)O)c2oc(=O)ccc12", "note": "[Byakangelicin, byakangelicin]", "BCS Type": "BCS I"},
      {"molecule": "COc1cc2c(cc1OC)[C@H]1[C@@H](C)c3ccc(OC)c(OC)c3CN1CC2", "note": "[Corydaline, corydaline]", "BCS Type": "BCS I"},
      {"molecule": "COc1cc2c(cc1OC)[C@@H]1Cc3ccc(OC)c(OC)c3CN1CC2", "note": "[Tetrahydropalmatine, tetrahydropalmatine]", "BCS Type": "BCS I"},
      {"molecule": "COc1ccc2c(c1OC)CN(C)CCc1cc3c(cc1C(=O)C2)OCO3", "note": "[α-allocryptopine]", "BCS Type": "BCS I"},
      {"molecule": "protopine", "BCS Type": "BCS I"}
    ]}
  ]
}
